Test results taken from PMC5671937.
No constants are given. Whether binding was seen depends on the method and setting. Binding seen in cells or lysates may run through a third protein. Some entries that bind do so weakly or less than the wild type. For part of these data: Tags and fused reporters may be left off the sequences shown.

Amino acid sequences for entries named in this document (tags omitted).
UniProt P06493: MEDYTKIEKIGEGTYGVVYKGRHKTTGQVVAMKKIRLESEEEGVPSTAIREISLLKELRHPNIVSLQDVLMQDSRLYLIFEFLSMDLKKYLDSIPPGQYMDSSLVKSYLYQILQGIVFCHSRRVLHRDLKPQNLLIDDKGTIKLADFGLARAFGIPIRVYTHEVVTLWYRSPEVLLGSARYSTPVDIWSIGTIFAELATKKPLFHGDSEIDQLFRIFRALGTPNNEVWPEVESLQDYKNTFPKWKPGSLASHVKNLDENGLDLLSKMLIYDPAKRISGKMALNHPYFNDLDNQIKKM

T1: cell division cycle 25B (CDC25B) (human (endogenous in HeLa)) (UniProt P30305)
T1 sequence: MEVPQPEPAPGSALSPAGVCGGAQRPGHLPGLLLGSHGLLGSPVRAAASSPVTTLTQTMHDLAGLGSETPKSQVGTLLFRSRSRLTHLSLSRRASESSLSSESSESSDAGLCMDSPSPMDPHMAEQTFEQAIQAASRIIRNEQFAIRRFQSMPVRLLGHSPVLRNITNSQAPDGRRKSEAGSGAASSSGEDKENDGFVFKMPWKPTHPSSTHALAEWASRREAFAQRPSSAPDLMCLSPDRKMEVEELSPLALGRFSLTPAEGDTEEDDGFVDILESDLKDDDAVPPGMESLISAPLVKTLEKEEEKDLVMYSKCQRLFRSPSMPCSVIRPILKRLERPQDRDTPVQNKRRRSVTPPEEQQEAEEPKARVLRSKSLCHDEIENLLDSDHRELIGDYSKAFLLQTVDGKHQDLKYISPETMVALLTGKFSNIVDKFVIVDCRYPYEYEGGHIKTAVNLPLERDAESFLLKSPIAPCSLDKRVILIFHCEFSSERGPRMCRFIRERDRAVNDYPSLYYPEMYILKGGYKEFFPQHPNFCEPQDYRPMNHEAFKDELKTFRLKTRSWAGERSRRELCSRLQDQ


Tests used:
[1] = molecular target: cyclin-dependent kinase 1 (CDK1) (human (endogenous in HeLa)) (UniProt P06493); experiment: co-IP; HeLa cells synchronized to M phase, whole-cell lysate, primary antibody overnight at 4 °C, protein A/G Sepharose beads, immunoblot; in some panels cells transfected with wild-type or S243A KCTD12 plasmid (Figure 7c) or treated with DMSO or VX-680 0.5 μM, 24 h (Figure 7b, d)
[2] = molecular target: T1, cell division cycle 25B (CDC25B) (human (endogenous in HeLa)); experiment: co-IP; HeLa cells transfected with KCTD12 wild-type or S243A mutant plasmid (1 μg, 24 h); lysate immunoprecipitated, immunoblot
[3] = molecular target: cyclin-dependent kinase 1 (CDK1) (human (endogenous in HeLa)) (UniProt P06493); experiment: as above

| binding [1] | binding [2] | binding [3] | Binder |
| --- | --- | --- | --- |
| binds | – | – | cell division cycle 25B (CDC25B) (enzyme, UniProt P30305 1-580) MEVPQPEPAPGSALSPAGVCGGAQRPGHLPGLLLGSHGLLGSPVRAAASSPVTTLTQTMHDLAGLGSETPKSQVGTLLFRSRSRLTHLSLSRRASESSLSSESSESSDAGLCMDSPSPMDPHMAEQTFEQAIQAASRIIRNEQFAIRRFQSMPVRLLGHSPVLRNITNSQAPDGRRKSEAGSGAASSSGEDKENDGFVFKMPWKPTHPSSTHALAEWASRREAFAQRPSSAPDLMCLSPDRKMEVEELSPLALGRFSLTPAEGDTEEDDGFVDILESDLKDDDAVPPGMESLISAPLVKTLEKEEEKDLVMYSKCQRLFRSPSMPCSVIRPILKRLERPQDRDTPVQNKRRRSVTPPEEQQEAEEPKARVLRSKSLCHDEIENLLDSDHRELIGDYSKAFLLQTVDGKHQDLKYISPETMVALLTGKFSNIVDKFVIVDCRYPYEYEGGHIKTAVNLPLERDAESFLLKSPIAPCSLDKRVILIFHCEFSSERGPRMCRFIRERDRAVNDYPSLYYPEMYILKGGYKEFFPQHPNFCEPQDYRPMNHEAFKDELKTFRLKTRSWAGERSRRELCSRLQDQ |
| – | binds | no binding | Flag-KCTD12 S243A mutant (protein, UniProt Q96CX2 1-325) MALADSTRGLPNGGGGGGGSGSSSSSAEPPLFPDIVELNVGGQVYVTRRCTVVSVPDSLLWRMFTQQQPQELARDSKGRFFLDRDGFLFRYILDYLRDLQLVLPDYFPERSRLQREAEYFELPELVRRLGAPQQPGPGPPPSRRGVHKEGSLGDELLPLGYSEPEQQEGASAGAPSPTLELASRSPSGGAAGPLLTPSQSLDGSRRSGYITIGYRGSYTIGRDAQADAKFRRVARITVCGKTALAKEVFGDTLNESRDPDRPPERYTSRYYLKFNFLEQAFDKLSESGFHMVACSSTGTCAFASSTDQSEDKIWTSYTEYVFCRE |
